Experimental data published in patent US20050032810A1, “Novel anthelmintic and insecticidal compositions” (priority 2003, published 2005).

The chains behind the UniProt entries cited, without tags or fusion partners. Residues count along the entry.
UniProt Q7KRX1, 1-357: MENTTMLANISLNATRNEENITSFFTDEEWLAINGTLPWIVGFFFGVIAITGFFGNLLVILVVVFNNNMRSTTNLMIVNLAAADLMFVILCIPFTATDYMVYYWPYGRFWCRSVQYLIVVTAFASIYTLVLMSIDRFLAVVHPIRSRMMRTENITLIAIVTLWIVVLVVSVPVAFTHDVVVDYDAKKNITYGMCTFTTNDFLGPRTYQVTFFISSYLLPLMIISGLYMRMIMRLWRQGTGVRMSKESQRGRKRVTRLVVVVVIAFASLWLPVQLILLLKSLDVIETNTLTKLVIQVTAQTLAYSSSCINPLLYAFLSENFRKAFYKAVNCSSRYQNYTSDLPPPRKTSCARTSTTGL

Biological target: Drosophila type 2 allatostatin receptor (Dm4) (Drosophila melanogaster, UniProt Q7KRX1)

Structure (SMILES)	IC50	Kd
CC(C)C[C@H](NC(=O)CNC(=O)[C@H](Cc1ccccc1)NC(=O)[C@H](CO)NC(=O)[C@H](Cc1ccc(O)cc1)NC(=O)[C@@H]1CCCN1C(=O)[C@H](CCCNC(=N)N)NC(=O)[C@@H](N)CO)C(N)=O	10 pM	–
CC(C)C[C@H](NC(=O)CNC(=O)[C@H](Cc1ccccc1)NC(=O)[C@H](CO)NC(=O)[C@H](Cc1ccc(O)c([125I])c1)NC(=O)[C@@H]1CCCN1C(=O)[C@H](CCCNC(=N)N)NC(=O)[C@@H](N)CO)C(N)=O	–	81 pM

Structures were worked out from names or drawings and are uncertain.
